Where a chain is given by its changes, count along the chain named. Construct, isoform or probe ends are uncertain for at least one entry. For part of these data: No signal at the amounts used counts as a negative. Tags and fusion partners may be left off the protein sequences shown. For part of these data: The direction of at least one scale is not stated here.
What was measured:
Assay in all cases: fluorescence polarization
[1] = molecular target: T1, DndE (Natronorubrum bangense JCM10635) (UniProt L9WJT3); conditions: 10 nM fluorescein-labeled DNA, 100 mM NaCl, 50 mM Tris-HCl pH 8.0, room temperature, 200 uL, recombinant protein, residues 1-134, protein details: N-terminal His (pET28a)
T1 sequence (looked up): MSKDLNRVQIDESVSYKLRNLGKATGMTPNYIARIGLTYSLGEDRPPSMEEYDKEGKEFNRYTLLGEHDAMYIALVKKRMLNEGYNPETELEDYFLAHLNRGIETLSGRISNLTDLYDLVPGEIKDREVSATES

[2] = molecular target: T2, DndE R34A (Natronorubrum bangense JCM10635) (UniProt L9WJT3); conditions: nick between G and A of GATC; 10 nM fluorescein-labeled DNA, 100 mM NaCl, 50 mM Tris-HCl pH 8.0, room temperature, 200 uL; recombinant protein; residues 1-134; protein details: N-terminal His (pET28a); label: 5'-FAM on strand 1; folded or branched DNA
T2 sequence (looked up): T1 sequence (looked up) with R34A

[3] = molecular target: T3, DndE K23A (Natronorubrum bangense JCM10635) (UniProt L9WJT3); conditions: nick between G and A of GATC; 10 nM fluorescein-labeled DNA, 100 mM NaCl, 50 mM Tris-HCl pH 8.0, room temperature, 200 uL; recombinant protein; residues 1-134; protein details: N-terminal His (pET28a); label: 5'-FAM on strand 1; folded or branched DNA
T3 sequence (looked up): T1 sequence (looked up) with K23A

[4] = molecular target: T4, DndE R19A (Natronorubrum bangense JCM10635) (UniProt L9WJT3); conditions: nick between G and A of GATC; 10 nM fluorescein-labeled DNA, 100 mM NaCl, 50 mM Tris-HCl pH 8.0, room temperature, 200 uL; recombinant protein; residues 1-134; protein details: N-terminal His (pET28a); label: 5'-FAM on strand 1; folded or branched DNA
T4 sequence (looked up): T1 sequence (looked up) with R19A

[5] = molecular target: T5, DndE G26K (Natronorubrum bangense JCM10635) (UniProt L9WJT3); conditions: nick between G and A of GATC; 10 nM fluorescein-labeled DNA, 100 mM NaCl, 50 mM Tris-HCl pH 8.0, room temperature, 200 uL; recombinant protein; residues 1-134; protein details: N-terminal His (pET28a); label: 5'-FAM on strand 1; folded or branched DNA
T5 sequence (looked up): T1 sequence (looked up) with G26K

TAGTGGATCCCCCG [ssDNA]
binding result ([1]; label: 5'-FAM, single-stranded DNA): no binding

GCGTAAGGTCCTCC (double strand) [dsDNAs, shuffled (E-D2-F/E-D2-R)]
Kd ([1]; label: 5'-FAM on strand 1): 43.2 µM

TAGTGGATCCCCCG (double strand) [dsDNA (E-D1-F/E-D1-R)]
Kd ([1]; label: 5'-FAM on strand 1): 48.4 µM

GCGGAGGACCTTACGCGGTTACCGCGTAA / GGTCCTCCGC [nDNAs, shuffled nicked (E-D4-F/E-D4-R)]
binding result ([1]; nick outside GATC, label: 5'-FAM on strand 1, folded or branched DNA): binds

GCCGGGGGATCCACTAGGTTACCTAGTGG / ATCCCCCGGC [nDNA, nicked (E-D3-F/E-D3-R)]
binding signal (fold decrease in affinity vs WT) [2]: 3.3 | Kd ([1]; nick between G and A of GATC, label: 5'-FAM on strand 1, folded or branched DNA): 18.8 µM | binding signal (fold decrease in affinity vs WT) [3]: 2.2 | binding signal (fold decrease in affinity vs WT) [4]: 1.4 | Kd [5]: 8.7 µM

Reference: article PMC9239217
